Laboratory results as given in PubChem BioAssay AID504444 (National Center for Advancing Translational Sciences (NCATS), 2011).
The whole screen tested about 360,000 compounds, of which about 7,500 (2.1%) were called active. The inconclusive results got no clear call from the source; some entries with a clear call stand among them for comparison. Calls follow the shape of the dose curve; as a rule, active = well fitted inhibition curve with a large enough effect; inconclusive = small, poorly fitted or top-dose-only effect, or effect the other way; inactive = flat fitted curve, though single readings scatter. Potencies of inconclusive entries are doubtful fits and often do not repeat.

Assay: Nrf2 qHTS screen for inhibitors; also: nearly all actives have a fitted effect of over 60% in size
Conditions: A549 ARE-Fluc reporter, luciferase luminescence, 18-24 h; activity change, negative = inhibition: at 46 µM (top of the series)
Summary of the method: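 Quantitative HTS in A549 cells stably bearing an antioxidant response element-firefly luciferase construct. Inhibition of Nrf2-driven transcription was scored by luminescence after 18-24 h of compound exposure at 37 °C.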
% is scaled to controls: 0 for no effect and ±100 for the full control effect; potency is read from the fitted curve at half-maximal effect.

SMILES | Potency | activity change, negative = inhibition
C#CCOCCOCCOCCNc1nc(N2CCN(C(=O)CCCCCCCCCCNC(=O)Cn3cc(C[C@@H](C)O)nn3)CC2)nc(N2CCN(C(=O)CCCCCCCCCCNC(=O)[C@@H]([C@H](C)O)n3cc(C)nn3)CC2)n1 | inconclusive: 18.4 µM [falling, single point] | 
CCCC(=O)NC(=S)Nc1cccc(NC(=O)c2ccccc2)c1 | inconclusive: 29.1 µM [falling, partial curve, poor fit] | 
COc1ccc(CCCc2nnc(SCC(=O)Nc3ccc(F)cc3)o2)cc1C |  | inactive: -30%
Cn1nc(C(=O)NCc2ccc(F)cc2)c2c1-c1ccccc1SC2 | inconclusive: 29.1 µM [falling, single point] | 
CC1(C)SC(=S)N(/N=C/c2ccccc2O)C1N(O)C(=O)Nc1ccccc1 (stereo not given) | inconclusive: 0.0651 µM [activator, full curve, poor fit] | 
COc1ccc(-c2cc(C(=O)Nc3nc4c(C)cccc4s3)c3ccccc3n2)cc1OC |  | inactive: -19.7%
Cc1ccc2[nH]c(=O)c(CN(C(=O)c3cccs3)c3ccccc3)cc2c1 | inconclusive: 29.1 µM [falling, single point] | 
O=c1c2c(nc3cc(-c4ccccc4)[nH]n13)CCS2 | inconclusive: 25.9 µM [activator, single point] | 
Cc1ccc(-c2c(C(=O)NCc3ccc(F)cc3)oc(=O)c3ccccc23)cc1 | inactive | 
Cc1ccc(C(=O)O/N=C(\N)c2cccnc2)cc1[N+](=O)[O-] | inconclusive: 29.1 µM [activator, single point] | 
Cc1ccc(Cn2c(/C=C/c3ccco3)nc3ccccc32)cc1 | inconclusive: 2.59 µM [activator, partial curve, poor fit] | 
Nc1c(C2=NCCO2)nnn1Cc1ccccc1 | inconclusive: 1.84 µM [falling, partial curve, poor fit] | 
COc1ccccc1C(=O)N1C(CC(=O)Nc2ccc(C)c(C)c2)C(=O)NC2CCCCC21 (stereo not given) | inconclusive: 0.0206 µM [falling, full curve] | 
CCC(=O)N1CCN(C(=O)CC)C1c1ccccc1 | inconclusive: 0.82 µM [activator, full curve, poor fit] | 
O=C1CN(C(=O)c2ccc(Br)o2)C(c2ccccc2)c2cc(Cl)ccc2N1 (stereo not given) | inconclusive: 16.4 µM [falling, partial curve, poor fit] | 
CN(C)c1ccc(C(=O)C(O)c2ccc(C(C)(C)C)cc2)cc1 (stereo not given) | inconclusive: 16.4 µM [falling, partial curve, poor fit] | 
CC(=Nc1ccccc1)c1sc2ccccc2c1O | inconclusive: 5.8 µM [activator, partial curve] | 
CCOC(=O)c1cc(C)n(CC2CCC(C(=O)Nc3ccc(C)cc3)CC2)c1C (stereo not given) | inconclusive: 6.51 µM [falling, partial curve, poor fit] | 
O=c1[nH]c(CSc2ccccn2)nc2c1oc1ccccc12 | inconclusive: 0.58 µM [activator, full curve, poor fit] | 
O=C(Cn1ncn2c(cc3ccccc32)c1=O)NCCC1=CCCCC1 |  | inactive: -9.38%
COc1cc(OC)c(NC(=O)Cn2c(=O)cc(C)c3c(C)nn(-c4ccc(C)cc4)c32)cc1Cl | inconclusive: 5.17 µM [falling, single point] | 
CCc1nc(CN2CCN(c3cc(C(F)(F)F)ccn3)CC2)c(C)[nH]1 |  | inactive: -27%

SMILES | Potency | activity change, negative = inhibition
CC(=O)c1ccc(OCC(O)CN2CCN(CCN3C(=O)c4cccc5cccc(c45)C3=O)CC2)cc1 (stereo not given) | inconclusive: 0.0052 µM [falling, full curve, poor fit] | 
CCc1ccc(-c2cc(C)no2)cc1S(=O)(=O)N1CCN(c2ccc(F)cc2)CC1 | inconclusive: 8.2 µM [falling, partial curve, poor fit] | 
CC(C)NC(=O)c1cnn2c1NC(c1cccs1)CC2C(F)(F)F (stereo not given) | inconclusive: 4.11 µM [falling, partial curve, poor fit] | 
CSc1ccc(-c2nc3c(C)cccn3c2Nc2ccc3c(c2)OCCO3)cc1 |  | inactive: -28.7%
CCC(=O)N1CCc2cc(S(=O)(=O)CCC(=O)N3CCN(c4cccc(Cl)c4)CC3)ccc21 | active: 23.1 µM | 
O=C(C1CCN(c2nnc(N3CCCC3=O)s2)CC1)N1CCN(c2cccc(C(F)(F)F)c2)CC1 | inconclusive: 20.6 µM [falling, partial curve] | 
COc1ccc(NC(=O)Nc2cccc3c2O[C@H](CN(C)C(=O)Nc2ccc(C(F)(F)F)cc2)[C@@H](C)CN([C@H](C)CO)C3=O)cc1 | inconclusive: 3.26 µM [activator, partial curve, poor fit] | 
CCOC(=O)c1nn(-c2ccc(Cl)cc2)c2nc(-c3ccc(C)cc3)c(C#N)c(=O)n12 |  | inactive: -19.7%
Cc1ccc2c(c1)N(CC(=O)NCCCN1CCCCC1)C(=O)CO2 | inconclusive: 29.1 µM [falling, single point] | 
O=C(NCc1ccc(F)cc1)C1CCCCN1S(=O)(=O)c1ccc(F)cc1 (stereo not given) |  | inactive: 20.9%
O=C(O)c1[nH]c2ccccc2c1NS(=O)(=O)Cc1ccccc1 |  | inactive: -10.4%
Fc1ccccc1COc1ccccc1CNCc1ccncc1 | inconclusive: 0.206 µM [falling, full curve, poor fit] | 
CCC1(C)CC(CCNS(=O)(=O)c2ccc(C)cc2)(c2ccc(C)cc2)CCO1 (stereo not given) | inconclusive: 23.1 µM [falling, single point] | 
CCOC(=O)c1sc(N(Cc2ccccc2)C(=O)CSc2nnc(C3CC3)n2N)nc1C |  | inactive: 3.98%
Cc1cc(C)cc(NC(=O)c2oc3ccc4c(c3c2C)C(=O)CC(C)(C)O4)c1 | inconclusive: 0.651 µM [activator, partial curve, poor fit] | 
COCCCNC(=O)CCC(=O)Nc1ccc2nc(N3CCOCC3)cc(C)c2c1 | inconclusive: 9.2 µM [activator, partial curve] | 
Cc1ccc(C)c(N2CCN(C(=O)c3ccc(Nc4nc5ccccc5n5nnnc45)cc3)CC2)c1 | inconclusive: 0.58 µM [falling, partial curve] | 
Cc1cc(C(=O)CSc2nc3ccccc3[nH]2)c(C)n1C | inconclusive: 5.17 µM [activator, partial curve] | 
Cc1ccc(NC(=O)c2ccccc2-c2ccc(C(F)(F)F)cc2)cc1S(=O)(=O)N1CCOCC1 | inconclusive: 20.6 µM [falling, partial curve, poor fit] | 
Cc1cc(C)cc(N(C(=O)c2nsc(Cl)c2Cl)C(C(=O)NC2CCCC2)c2ccc(O)cc2)c1 (stereo not given) | inconclusive: 29.1 µM [falling, single point] | 
CC(C)NS(=O)(=O)c1ccc(OCC(=O)NC(C)c2ccccc2)cc1 (stereo not given) | inconclusive: 1.46 µM [falling, full curve] | 
O=C(N/N=C/c1cccc2cccnc12)[C@H]1C[C@@H]1c1ccccc1 | inconclusive: 18.4 µM [falling, single point] | 

3 of these compounds, reformatted.
Cc1cc(C)cc(N(C(=O)c2nsc(Cl)c2Cl)C(C(=O)NC2CCCC2)c2ccc(O)cc2)c1 (stereo not given)
  Potency: inconclusive: 29.1 µM [falling, single point]
CC(C)NS(=O)(=O)c1ccc(OCC(=O)NC(C)c2ccccc2)cc1 (stereo not given)
  Potency: inconclusive: 1.46 µM [falling, full curve]
O=C(N/N=C/c1cccc2cccnc12)[C@H]1C[C@@H]1c1ccccc1
  Potency: inconclusive: 18.4 µM [falling, single point]

Carrying on:

SMILES | Potency | activity change, negative = inhibition
CCOC(=O)/C(=N/Nc1ccc(Cl)cc1)S(=O)(=O)c1ccccc1 | inconclusive: 29.1 µM [falling, single point] | 
O=C(Nc1ccccn1)c1ccc([N+](=O)[O-])o1 |  | inactive: 7.6%
COc1ccc(NC(=O)Cn2nnc(C(=O)NCc3ccc4c(c3)OCO4)c2N)c(OC)c1 | inconclusive: 32.6 µM [falling, single point] | 
Cn1c(SCC(N)=O)nnc1-c1ccc(S(=O)(=O)N2CCCC2)cc1 |  | inactive: 2.47%
O=C1N/C(=N\N=C\c2cccs2)SC1Cc1cccc(Cl)c1 (stereo not given) |  | inactive: -4.97%
COc1ccc(-c2csc(NNC3=NCCCCC3)n2)cc1 | inconclusive: 25.9 µM [activator, single point] | 
O=C(CSCc1ccccc1Cl)N1CCN(c2ccccn2)CC1 |  | inactive: -34.4%
CCN(CC)C(=O)[C@H]1CC(CC(=O)NC/C=C(\C)CCC=C(C)C)C(=O)N2CCc3c([nH]c4ccccc34)[C@]12C (stereo not given in full) | inconclusive: 29.1 µM [falling, single point] | 
O=c1ccc2cc(S(=O)(=O)N3CCN(c4ccccc4F)CC3)ccc2[nH]1 | inconclusive: 10.3 µM [falling, partial curve] | 
CCc1ccc(N(CC(=O)NCc2ccco2)C(=O)CCC(=O)Nc2nccs2)cc1 |  | inactive: 7.38%
Cc1nonc1C(=O)N/N=C/c1ccc(O)c(O)c1 |  | inactive: 0.412%
O=C1c2ccccc2-c2cccc(NS(=O)(=O)c3ccc(C(F)(F)F)cc3)c21 | inconclusive: 18.4 µM [falling, single point] | 
CCOC(=O)N1CCC2(CC1)OC(=O)C(C)=C2C(=O)NCc1ccc(C)cc1 |  | inactive: 0%
O=C(NCC(=O)N(CC1CCCO1)C1(C(=O)NC2CCCCC2)CCCCC1)c1ccccc1 (stereo not given) |  | inactive: 16.6%
Cc1cccc(CCNC(=O)C2CCCN(c3ncnc4c3nc3n4CCCCC3)C2)c1 (stereo not given) |  | inactive: -22.5%
COc1ccc(NC(=O)Nc2cc(C)ccc2F)cc1 | inconclusive: 10.3 µM [activator, partial curve] | 
Cn1cc(S(=O)(=O)N2CCCC2)cc1C(=O)NCc1ccccc1Cl | inconclusive: 13 µM [falling, partial curve, poor fit] | 
COc1ccc(OCc2cc(C(=O)N(C)Cc3nnc(C)o3)no2)c(Cl)c1 | inconclusive: 7.31 µM [activator, partial curve] | 
CCCNC(=O)Cc1c(C)n(C(=O)c2ccc(Cl)cc2)c2ccc(OC)cc12 | active: 18.4 µM | 
Cc1[nH]n(C(N)=S)c(=O)c1N=Nc1cccc(C(F)(F)F)c1 | inconclusive: 3.26 µM [activator, single point] | 
CCOc1ccc(C(F)(F)F)cc1NC(=O)c1ccc(OC)c([N+](=O)[O-])c1 | inconclusive: 14.6 µM [falling, partial curve, poor fit] | 
